This is an account of results in paper PMC12664368.

No constants are given. Whether binding was seen depends on the method and setting. In cells and extracts the contact can be indirect. A yes stands for co-enrichment or nearness to the bait. Other partners may have been found.

The assay concerns the target ankyrin repeat and BTB domain-containing protein 2 (ABTB2) (UniProt Q7TQI7). In words: affinity purification with mass spectrometry; lysate of Panc02 (ABTB2-OE) cells incubated with Protein A Dynabeads preloaded with anti-ABTB2 antibody, 10 min, washed 3 times, mild elution; Bruker timsTOF Pro.

B1: tumour necrosis factor receptor-associated protein 1 (TRAP1) (protein, UniProt Q9CQN1 61-706)
chain: STQAAEDKEEESLHSIISNTEAVRGSVSKHEFQAETKKLLDIVARSLYSEKEVFIRELISNASDALEKLRHKLVCEGQVLPEMEIHLQTDAKKGTITIQDTGIGMTQEELVSNLGTIARSGSKAFLEALQNQAETSSKIIGQFGVGFYSAFMVADKVEVYSRSAAPESPGYQWLSDGSGVFEIAEASGVRPGTKIIIHLKSDCKDFASESRVQDVVTKYSNFVSFPLYLNGKRINTLQAIWMMDPKDISEFQHEEFYRYIAQAYDKPRFTLHYKTDAPLNIRSIFYVPEMKPSMFDVSRELGSSVALYSRKVLIQTKAADILPKWLRFIRGVVDSEDIPLNLSRELLQESALIRKLRDVLQQRLIKFFIDQSKKDAEKYAKFFEDYGLFMREGIVTTAEQDIKEDIAKLLRYESSALPAGQLTSLPDYASRMQAGTRNIYYLCAPNRHLAEHSPYYEAMKQKHTEVLFCYEQFDELTLLHLREFDKKKLISVETDIVVDHYKEEKFEDTSPADERLSEKETEDLMAWMRNALGSRVTNVKVTFRLDTHPAMVTVLEMGAARHFLRMQQLAKTQEERAQLLQPTLEINPRHTLIKKLCQLRESEPELAQLLVDQIYENAMIAAGLVDDPRAMVGRLNDLLVKVLEKH
As for B1, the binding entry is given as “binds”.
